# Experiment: Sensory properties of oil component blended with alkanediol, assessed by untrained panelists on the backside of the hand
# Assay type: in vivo
# Conditions: for Spreading with: 30 s after application; for Spreading with / Fatty/greasy skin feeling with: scale 1 (low) to 5 (high); for Fatty/greasy skin feeling with: after 2 minutes; for Fatty/greasy skin feeling Delta / Spreading Delta: with vs without alkanediol
# Description: For evaluating the sensory behavior, oil components specified in the following Table 13 were blended with 1,2-heptanediol or 2,3-heptanediol or a mixture of 1,2-heptanediol and 2,3-heptanediol or 1,2-octanediol or 2,3-octanediol or a mixture of 1,2-octanediol and 2,3-octanediol (formulation) and assessed by untrained panelists in comparison to the oil component without addition of the specified alkanediols (placebo).
# Test procedure: • Hands were pre-washed with liquid soap by following a defined procedure; • 30 μl of corresponding sample was applied on the backside of each hand (randomized); • After 30 s the spreading behavior of the respective formulation on skin was evaluated versus the respective oil component without 1,2-heptanediol on a scale from 1 to 5 (1=low spreading; 5=high spreading); • The samples were distributed with the fingertips of middle and forefinger with 2×5 cycles; • After 2 minutes, the fatty/greasy skin feeling was evaluated on a scale from 1 to 5 (1=low fatty/greasy skin feeling; 5=high fatty/greasy skin feeling); • Furthermore, the applicants were asked to assess the absorption, i.e. the impression of amount of remaining residue on the skin on a scale from 1 to 5 (1=low absorption; 5=high absorption).
# [1] = in Helianthus Annuus (Sunflower) Seed Oil
structure (smiles),measurement,setting,value
"CCCCCC(O)C(C)O (centres unmarked) [2,3-octanediol]",Spreading with,in Argan Oil,3.4
same,Fatty/greasy skin feeling with,in Argan Oil,2.4
same,Fatty/greasy skin feeling Delta,in Argan Oil,1.6
same,Spreading Delta,in Argan Oil,1.4
same,Spreading with,in Avocado Oil,3.2
same,Fatty/greasy skin feeling with,in Avocado Oil,2.8
same,Fatty/greasy skin feeling Delta,in Avocado Oil,1
same,Spreading Delta,in Avocado Oil,1.2
same,Spreading with,in Cacao butter,3
same,Fatty/greasy skin feeling with,in Cacao butter,3
same,Fatty/greasy skin feeling Delta,in Cacao butter,1.2
same,Spreading Delta,in Cacao butter,1.2
same,Spreading with,in Castor Oil,1.8
same,Fatty/greasy skin feeling with,in Castor Oil,2.8
same,Fatty/greasy skin feeling Delta,in Castor Oil,1.4
same,Spreading Delta,in Castor Oil,0.6
same,Spreading with,in Coconut Oil,4.2
same,Fatty/greasy skin feeling with,in Coconut Oil,2.2
same,Fatty/greasy skin feeling Delta,in Coconut Oil,1.4
same,Spreading Delta,in Coconut Oil,1.8
same,Spreading with,in Grapeseed Oil,2.8
same,Fatty/greasy skin feeling with,in Grapeseed Oil,2.8
same,Fatty/greasy skin feeling Delta,in Grapeseed Oil,1.4
same,Spreading Delta,in Grapeseed Oil,0.8
same,Spreading with,[1],3.4
same,Fatty/greasy skin feeling with,[1],3
same,Fatty/greasy skin feeling Delta,[1],0.8
same,Spreading Delta,[1],2
same,Spreading with,in Olive Oil,3.2
same,Fatty/greasy skin feeling with,in Olive Oil,2.4
same,Fatty/greasy skin feeling Delta,in Olive Oil,1.4
same,Spreading Delta,in Olive Oil,0.8

# From US20230293405A1, “Compositions Comprising UV-Filters and One or More (Bio)-Alkanediols” (Symrise AG, priority 2020, published 2023)
